{"sequences": {"note": "Amino acid sequences for entries named in this document (tags omitted). Residues count along the entry.", "UniProt Q9NPH3, residues 21-570": "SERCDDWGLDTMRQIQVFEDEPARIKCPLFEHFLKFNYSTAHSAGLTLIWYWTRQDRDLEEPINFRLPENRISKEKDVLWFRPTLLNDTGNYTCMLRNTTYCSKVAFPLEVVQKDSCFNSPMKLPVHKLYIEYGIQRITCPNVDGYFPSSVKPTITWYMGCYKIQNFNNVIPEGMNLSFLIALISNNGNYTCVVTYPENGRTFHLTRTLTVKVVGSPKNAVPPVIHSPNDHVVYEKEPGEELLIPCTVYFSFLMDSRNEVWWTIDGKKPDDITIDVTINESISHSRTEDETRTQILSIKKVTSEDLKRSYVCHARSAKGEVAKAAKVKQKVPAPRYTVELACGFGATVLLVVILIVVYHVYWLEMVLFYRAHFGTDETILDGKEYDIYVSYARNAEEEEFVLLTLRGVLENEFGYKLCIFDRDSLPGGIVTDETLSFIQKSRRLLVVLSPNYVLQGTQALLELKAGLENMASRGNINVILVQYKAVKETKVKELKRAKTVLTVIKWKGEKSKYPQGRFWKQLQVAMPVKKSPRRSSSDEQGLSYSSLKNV"}, "source": "paper PMC4583993", "binders": {"B1": {"name": "IL-1 receptor type 2 (IL-1R2) (receptor, UniProt P27930 14-398)", "chain": "FTLQPAAHTGAARSCRFRGRHYKREFRLEGEPVALRCPQVPYWLWASVSPRINLTWHKNDSARTVPGEEETRMWAQDGALWLLPALQEDSGTYVCTTRNASYCDKMSIELRVFENTDAFLPFISYPQILTLSTSGVLVCPDLSEFTRDKTDVKIQWYKDSLLLDKDNEKFLSVRGTTHLLVHDVALEDAGYYRCVLTFAHEGQQYNITRSIELRIKKKKEETIPVIISPLKTISASLGSRLTIPCKVFLGTGTPLTTMLWWTANDTHIESAYPGGRVTEGPRQEYSENNENYIEVPLIFDPVTREDLHMDFKCVVHNTLSFQTLRTTVKEASSTFSWGIVLAPLSLAFLVLGGIWMHRRCKHRTGKADGLTVLWPHHQDFQSYPK"}}, "target": "IL-1 receptor accessory protein (IL-1IRAcP) (human (endogenous in KMH2)) (UniProt Q9NPH3)", "experiment": "co-IP; KMH2 lysate (20mM Tris pH 7.4, 1mM EGTA, 1mM EDTA, 2mM DTT, 0.5% TritonX-100) incubated with anti-IL-1IRAcP and Sepharose-G beads over night; blot developed with anti-IL-1IRAcP, stripped and developed with anti-IL-1R2", "note": "No constants are given. Whether binding was seen depends on the method and setting. In cells and extracts the contact can be indirect. Some results given as binding are weak or reduced against the parent protein; the word gives no strength.", "data": [{"binder": "B1", "values": [{"measurement": "binding", "result": "binds"}]}]}
